Consider 61 compounds from PubChem BioAssay AID493014 (National Center for Advancing Translational Sciences (NCATS), 2011).

Where “and” joins values, the source holds several entries; their conditions need not be identical. Equal values may be shown once. Some of the results follow. Shown are side measurements of this screen, not its main read-out; they come without a call. The list favours compounds with an active or inconclusive main result. The note in brackets gives the kind of curve behind each potency; many fits are weak.

Broadly, the AC50 is the midpoint of the concentration-response curve, whichever way the signal moves.

This test in a line: qHTS Assay to Find Inhibitors of Chronic Active B-Cell Receptor Signaling. The settings on record: ABC-DLBCL IkBa-CBG/CBR reporter, luminescence ratio (green luciferase fused to IkBa over red control in TMD8 lymphoma cells), 4 h. The essentials:
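TMD8 human ABC-DLBCL cells with doxycycline-inducible IκBα–green luciferase fusion and unfused red luciferase, in 0.5% FBS medium; compounds up to 46 uM, 4 h at 37C. Green/red luminescence ratio, filter-overlap corrected, fitted to concentration-response curves.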
In general terms: qHTS replaces the single test concentration by a dilution series.

Where [1] appears, read: measured here: CBR red luminescence, cell number.
The mark [2] stands for this setting: measured here: IkBa-CBG green luminescence.

For `COc1ccccc1NC(=O)c1ccc2[nH]c(C)c(C)c2c1`, the AC50 under setting [1] was 0.1 µM [rising, full curve, poor fit]. Same read-out and setting: then `COc1cc(C(CC(=O)Nc2ncccc2C)N2Cc3ccccc3C2=O)cc(OC)c1OC` (stereo not given), with 0.112 µM [rising, full curve, poor fit]. Turning to `COCc1cc(=O)n2[nH]c(C)c(-c3ccccc3)c2n1`, the AC50 under setting [1] was 25.1 µM [falling, partial curve, poor fit]. The same measure, in the same setting: the value for `COc1ccc(NC(=S)Nc2ccc(N)c([N+](=O)[O-])c2)cc1` was 1.64 µM [falling, partial curve, poor fit]; that for `N/C(=N\OC(=O)CSc1ccccc1)c1ccccn1` was 2.51 µM [falling, full curve, poor fit].

Regarding `Cc1c(O)cccc1C(=O)N[C@@H](CSc1ccccc1)[C@H](O)CN1C[C@H]2CCCC[C@H]2C[C@H]1C(=O)NC(C)(C)C`, the AC50 under setting [1] was 10 µM [falling, partial curve] and the AC50 under setting [2] was 15.8 µM [rising, partial curve, poor fit]. Consider `COc1cc(=O)n2c(-c3ccccc3)csc2n1`, for which the AC50 under setting [1] was 2.24 µM [rising, full curve, poor fit]. Regarding `COc1ccc(/C=C2\SC(=S)N(N3C(=O)CCC3=O)C2=O)cc1O`, the AC50 under setting [1] is 35.5 µM [falling, single point].

Take `CCOC(=O)Nc1sc2c(c1C#N)CCCC2`: the AC50 under setting [1] was 10.3 µM [rising, partial curve, poor fit]. Regarding `CC(C)[C@H]1COCCS(=O)(=O)N1Cc1ccccc1-c1ccc(F)cc1`, the AC50 under setting [1] was 5.17 µM [falling, partial curve, poor fit].

Take `Clc1ccc(CN2CCc3c([nH]c4ccccc34)C2)cc1Cl`: the AC50 under setting [1] is 35.5 µM [falling, single point]. Still for that read-out and setting: then `Cc1ccc(NC(=O)CN2C(=O)NC(C)(C3CC3)C2=O)c(C)c1` (stereo not given), with 6.51 µM [rising, partial curve, poor fit]; and `CC(C)CNC(=S)NC(=O)c1ccc(Cl)cc1`, with 16.4 µM [rising, partial curve, poor fit]; and `Clc1ccc(OCCCCSc2ncccn2)cc1`, with 1.16 µM [rising, partial curve]. As for `O=C(COC(=O)c1cccnc1Nc1cccc(C(F)(F)F)c1)NCc1ccc2c(c1)OCO2`, the AC50 under setting [1] is 0.708 µM [rising, full curve, poor fit].

Regarding `Oc1ccc(-c2nccc(-c3ccc(Br)cc3)n2)cc1`, the concentration at half-maximal activity (AC50) under setting [1] is 7.08 µM [rising, partial curve, poor fit].

`O=C(N/N=C/c1ccsc1)c1cc(-c2cccs2)nc2ccccc12`: the AC50 is, setting by setting: under setting [1], 6.51 µM [rising, partial curve]; under setting [2], 18.4 µM [falling, single point]. As to `O=C(Nc1ccc2c(c1)OCCO2)c1cccs1`, the AC50 under setting [1] was 14.6 µM [falling, partial curve, poor fit].

In the case of `COc1ccccc1C(=O)NCCC(=O)N(C)CC(=O)Nc1ccccc1Br`, the AC50 under setting [1] is 20.6 µM [rising, single point].

For the compound `Cc1cccc(Oc2sc(C(=O)c3ccccc3)c(N)c2C#N)c1C`, the AC50 under setting [1] was 22.4 µM [falling, partial curve, poor fit]. Take `O=C1OCCN1C(=O)[C@H]1[C@H](c2ccc(F)cc2)C(c2ccccc2)=NN1c1ccc(Br)cc1`: under setting [1], the AC50 is 29.1 µM [rising, single point].

As to `COc1ccc(-n2c(COc3ccc4ccccc4c3)nnc2SCC(=O)NCc2ccco2)cc1`, the AC50 under setting [1] is 29.1 µM [falling, single point].

In the case of `COc1cccc(NC(=O)CSc2ncc(S(=O)(=O)c3ccccc3)c(=O)[nH]2)c1`, the AC50 under setting [1] is 35.5 µM [falling, single point].

In the case of `Cc1cccc(CN2C(=O)N/C(=C/c3cc(C)n(-c4cc(C)ccn4)c3C)C2=O)c1`, the AC50 under setting [1] was 29.1 µM [falling, single point]. In the case of `COc1cccc(C(=O)Oc2cc(-c3ccccc3)no2)c1`, the AC50 under setting [1] was 7.31 µM [falling, single point]. Consider `COc1ccccc1-c1cc(N)n[nH]1`, for which the AC50 under setting [1] is 4.11 µM [falling, full curve]. On the same count and under the same terms, then `O=C(CN1C(=O)C2C3CCC(C3)C2C1=O)OCC(=O)c1ccccc1` (stereo not given), with 25.1 µM [rising, single point]. Turning to `CC(=O)c1ccsc1-c1c(C)cc2oc(=O)cc(-c3ccccc3)c2c1C`, the AC50 by setting is: under setting [1], 6.51 µM [rising, single point]; under setting [2], 2.91 µM [falling, full curve]. On to `c1ccc(-c2ccc(OCCCn3cncn3)cc2)cc1`, for which the AC50 under setting [1] is 0.461 µM [rising, full curve]. For `CC(C)c1ccc(NC(=O)Cc2cn(C)c3ccccc23)cc1`, under setting [1], the AC50 was 3.55 µM [rising, full curve]. As to `CCSc1ccc2c(c1)N(CCCN1CCN(C)CC1)c1ccccc1S2`, under setting [1], the AC50 was 23.1 µM [falling, single point]. Take `CCOc1ccc(S(=O)(=O)N(C)c2ccc(OCC(=O)Nc3nc(-c4cc(OC)ccc4OC)cs3)cc2)cc1`: the AC50 under setting [1] was 32.6 µM [rising, partial curve, poor fit]. Same read-out and setting: the value for `COc1cc(Br)cc(-c2nc3c(c(=O)[nH]c(=O)n3Cc3ccccc3)n2C)c1O` was 35.5 µM [falling, single point]. On to `CCN(CC)S(=O)(=O)c1ccc(-c2nnc(SCC(=O)N3CCc4ccccc43)o2)cc1`, for which the AC50 under setting [1] was 3.66 µM [falling, partial curve, poor fit]. Still for that read-out and setting: then `O=C(CSc1nnc(-c2cccnc2)n1Cc1ccco1)N1c2ccccc2Sc2ccccc21`, with 0.0651 µM [falling, full curve]; and `Cc1ccc(S(=O)(=O)N2CCOCC2)cc1NC(=O)C(c1ccc(Cl)cc1)C(C)C` (stereo not given), with 20.6 µM [falling, single point]. Consider `Cc1cc(NC(=O)CSCC(=O)OCC(=O)c2cccc(Br)c2)no1`, for which the AC50 under setting [1] is 32.6 µM [rising, partial curve, poor fit]. Still for that read-out and setting: the value for `COc1cccc(-c2c(C(=O)N/N=C/c3ccoc3)nnn2-c2nonc2N)c1` was 20 µM [falling, single point]. Regarding `COc1ccc(S(=O)(=O)N(C)C)cc1NC(=O)CSc1nc(N)cc(N)n1`, the AC50 under setting [1] is 6.31 µM [rising, full curve, poor fit]. As for `Cc1nc(NCc2cccnc2)c2c3c(sc2n1)CC(C)CC3` (stereo not given), the AC50 under setting [1] is 12.6 µM [rising, partial curve]. Consider `COc1ccc(-c2cc(-c3ccccc3)nc3ncnn23)cc1`, for which, under setting [1], the AC50 was 11.2 µM [falling, single point].

Take `COc1ccccc1C(=O)NN=C1CCN(Cc2ccccc2)CC1`: under setting [1], the AC50 is 0.058 µM [falling, full curve, poor fit]. Consider `COc1cccc(NC(=O)CN(C)C(=O)CSCC(=O)Nc2ccc(C)cc2)c1`, for which, under setting [2], the AC50 was 16.4 µM [falling, partial curve, poor fit]. Take `Cc1ccc(-c2csc3ncnc(Nc4ccc(C(=O)O)cc4)c23)cc1`: the AC50 under setting [1] was 2.51 µM [falling, full curve, poor fit]. Take `O=C(/C=C/c1cccs1)c1cc(Br)ccc1OC(=O)N1CCOCC1`: the AC50 under setting [2] is 16.4 µM [falling, partial curve, poor fit].

Turning to `COC(=O)C1=C(C)N(Cc2ccccc2)C(=S)N[C@H]1c1ccccc1`, under setting [1], the AC50 was 10 µM [falling, partial curve] and 12.6 µM [falling, single point]. Consider `CCCCC(=O)Nc1ccc(NC(=O)c2ccc([N+](=O)[O-])cc2)cc1OC`, for which, under setting [1], the AC50 is 3.26 µM [rising, full curve, poor fit].

Consider `COc1ccc(CC(NC(C)=O)C(=O)NC2CCN(C(=O)NCc3ccccc3)CC2)cc1` (stereo not given), for which, under setting [1], the AC50 was 0.251 µM [rising, full curve, poor fit]. Regarding `COC(=O)Cn1c(=NC(=O)c2cc(-c3cccs3)nc3ccccc23)sc2cc(S(N)(=O)=O)ccc21`, the AC50 under setting [2] was 6.51 µM [rising, partial curve, poor fit]. Take `CCOC(=O)c1[nH]c(C)c(C(=O)OCC(=O)N2CCc3ccccc32)c1C`: the AC50 under setting [1] was 1.46 µM [falling, full curve, poor fit]. Take `CC1=NC(=O)C(N=Nc2cccc(C(=O)O)c2)N1c1ccccc1` (stereo not given): the AC50 by setting is: under setting [1], 0.82 µM [falling, full curve]; under setting [2], 18.4 µM [rising, partial curve, poor fit]. Consider `Cc1ccc(/C=c2\sc3n(c2=O)CN(c2ccc(Br)cc2)CN=3)o1`, for which the AC50 under setting [1] is 2.24 µM [falling, full curve].

For the compound `O=C(Nc1cccc2ccccc12)N1CCN(c2ccc(F)cc2)CC1`, under setting [1], the AC50 was 1.03 µM [falling, partial curve, poor fit]. Turning to `CN(C)c1cc(Nc2cccc(O)c2)c([N+](=O)[O-])c2nonc12`, under setting [1], the AC50 is 6.31 µM [rising, single point]. Regarding `COc1cc(-c2ccc3c(=O)c4ccccc4n(C)c3c2)cc(OC)c1OC`, the AC50 under setting [1] was 3.16 µM [falling, partial curve, poor fit].

With `COc1cccc(N2CC(NS(=O)(=O)c3ccc4ccccc4c3)CC2=O)c1` (stereo not given), under setting [1], the AC50 is 29.1 µM [falling, single point].

As for `O=C(COC(=O)c1ccccc1C(=O)c1ccccc1)NCCc1ccc(Cl)cc1Cl`, the AC50 under setting [1] was 29.1 µM [falling, single point]. For the compound `N/C(=N\OC(=O)c1cccc(Br)c1)c1ccc(Br)cc1`, the AC50 under setting [1] is 7.08 µM [rising, partial curve]. For `O=C(Nc1ccccc1)c1ccc(-c2ccccc2Cl)o1`, under setting [1], the AC50 is 16.4 µM [falling, partial curve]. On to `O=C(c1cn(-c2ccc(Cl)c(Cl)c2)nn1)C1CC1`, for which, under setting [1], the AC50 is 1.26 µM [rising, full curve, poor fit]. Same read-out and setting: the value for `CCCCOc1ccc(C(=O)NCC(=O)NC2CC2)cc1` was 0.731 µM [rising, full curve, poor fit].
